# In PubChem BioAssay AID1259415 (National Center for Advancing Translational Sciences (NCATS), 2018):
# About 18,000 (4.4%) of roughly 410,000 compounds were called active. Inconclusive means that the source gave no clear call. Such entries were picked first, then a sample of the others. No stated cut-off is given here; in the data, active means activity change below about -60%; inconclusive means no clear call, values can overlap the other calls; inactive means above about -39%.
# Assay: qHTS Assay for inhibitors of the human cytomegalovirus (HCMV)
# Settings: HFF cells, HCMV-luciferase reporter, 72 h; at 57.5 µM; active compounds read low
# Summary of the method: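 Two-dose cell screen: HFF monolayers treated with compounds and infected with luciferase-expressing HCMV at 1 PFU/cell, 72 h at 37C, then lysed for luciferase measurement.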
# On the % scale 0 is the no-effect control and ±100 the full control effect.
row,Compound,"activity change, negative = inhibition"
1,Cc1ccc2c(=O)n3c(nc2c1)C(Cc1ccccc1)NC(=O)c1cc(Cl)ccc1-3 (centres undefined),inconclusive: -44.3%
2,COc1cccc(OC)c1OCCCOc1ccc([N+](=O)[O-])cc1Cl,inconclusive: -47.7%
3,Cc1ccc(S(=O)(=O)NCC2CCC(C(=O)NCCCOC(C)C)CC2)cc1 (centres undefined),inconclusive: 0%
4,CCCCC(=O)N/N=C/c1ccc(-c2ccc([N+](=O)[O-])cc2)o1,inconclusive: -52.5%
5,COc1cc(/C=N\NC(=O)c2nonc2N)c(OC)cc1Br,inconclusive: -56.2%
6,COc1cc(C(=O)NNC(=O)c2nn(C)c(=O)c3ccccc23)cc(OC)c1OC,inactive: 33.8%
7,Cc1ccc(C2CC(c3cccc(C)c3)n3nc(N)nc3N2)cc1 (centres undefined),inconclusive: -57.4%
8,COc1ccc(/C=N/NC(=O)c2cccc(NC(=O)c3ccccc3Cl)c2)cc1,inconclusive: -41.3%
9,CCc1ccc2[nH]c(=O)c(CN(Cc3ccccc3)C(=O)Nc3ccccc3OC)cc2c1,inconclusive: -59.8%
10,CC(=O)N1CCN(c2ccccc2NC(=O)c2cc3ccccc3o2)CC1,inconclusive: -52.1%
11,CC(=O)Nc1ccccc1S(=O)(=O)CC1CC1(Cl)Cl (centres undefined),inconclusive: -48.6%
12,O=C(N/N=C/c1cccc([N+](=O)[O-])c1)c1cccc2cc[nH]c12,inactive: 52%
13,Cc1cccc(NC(=S)N2CCN(c3ccc(F)cc3)CC2)c1,inactive: 30.7%
14,CC(C)(C)C(=O)/C=C/c1ccc(Oc2ccccc2)cc1,inconclusive: -41%
15,Cc1ccc(NC(=O)Cn2nc(Cc3ccncc3)c3ccccc3c2=O)c(Cl)c1,active: -96.9%
16,COc1ccc(S(=O)(=O)NC2CCc3ccccc32)cc1OC (centres undefined),inconclusive: -50.7%
17,CCc1c(C)nc2nncn2c1NCc1ccc(Cl)cc1,active: -69.2%
18,CC(C)CNC(=S)Nc1ccc(Oc2ccccc2)cc1,active: -62.7%
19,COc1ccc(Cn2c(=O)[nH]c3cc(C(=O)N4CCN(c5ccccn5)CC4)ccc3c2=O)cc1,inconclusive: -42.1%
20,O=C(NNc1ccccc1[N+](=O)[O-])Nc1cccc(Cl)c1,inconclusive: -44.6%
21,CCCN1C(=O)/C(=N\OCC(=O)Nc2ccc(C(C)C)cc2)c2ccccc21,inconclusive: -46.3%
22,CCCOc1ccc(/C=N/Nc2ccccc2[N+](=O)[O-])c(OCCC)c1,inconclusive: -58.6%

row,Compound,"activity change, negative = inhibition"
1,Cc1[nH]c2ccccc2c1C1=NNC(=Nc2ccc(F)cc2)SC1,inconclusive: -50.7%
2,COc1ccc(C(=O)NNC(=S)NC(=O)c2ccc(OC)cc2)cc1,active: -92.2%
3,COCCNC(=S)NNc1cccc(C(=O)O)c1,inactive: -2.83%
4,Cc1ccc(C(c2nnnn2C2CCCCC2)N2CCc3ccccc32)cc1 (centres undefined),inactive: -20.9%
5,COc1cccc(C(c2nnnn2Cc2ccco2)N2CCN(Cc3ccccc3)CC2)c1OC (centres undefined),inconclusive: -52.9%
6,CN1CCN(c2ncnc3ccc(Br)cc23)CC1,inconclusive: -49.2%
7,CCOc1ccc(CCNC(=O)c2nn(C)c3c2CSc2ccccc2-3)cc1,inconclusive: -49%
8,COc1cc(OC)cc(OC)c1,inconclusive: -43.1%
9,COc1cc(O)c(C(=O)c2ccccc2)cc1S(=O)(=O)O,inactive: 1.02%
10,COC(=O)c1ccc(Oc2cc(C)nc(SC)n2)cc1,inconclusive: -50.5%
11,COc1cc(C(=O)NNC(=S)NC(=O)c2ccc3c(c2)OCO3)cc(OC)c1OC,inconclusive: -45.1%
12,O=C(Nc1nnc(-c2ccco2)s1)C1CCN(S(=O)(=O)c2ccc(Cl)cc2)CC1,inconclusive: -54.2%
13,O=C(CCn1c(=S)[nH]c2cc3c(cc2c1=O)OCO3)NCc1ccccc1Cl,inconclusive: -41.4%
14,O=C1CN(C(=O)COc2ccc(Cl)cc2Cl)C(c2ccccc2)c2cc(F)ccc2N1 (centres undefined),inconclusive: -41.7%
15,COC(=O)N1C(=O)[C@](c2ccsc2)(C(C)C)N1C(=O)OC,inactive: 23%
16,Cc1ccc(-n2ncc3c(NCc4ccccn4)ncnc32)c(C)c1,inactive: -0.774%
17,COc1ccccc1N1CCN(c2ncnc3n[nH]c(Br)c23)CC1,inconclusive: -57.3%
18,O=C(c1cccs1)N(Cc1nc2sc3c(c2c(=O)[nH]1)CCCC3)C1CCCC1,active: -71.2%
19,CCCn1c(NC(=O)c2cccc(S(=O)(=O)N3CCCC3)c2)nc2ccccc21,active: -96.9%
20,CCc1c(C)nc2ncnn2c1N1CCN(S(=O)(=O)c2ccc(OC)cc2)CC1,active: -71.9%
21,C[n+]1ccc(-c2ccccc2)c2ccccc21,active: -86.7%
22,FC(F)(F)c1ccccc1Cc1c(-c2ccco2)nc2ccc(Cl)cn12,active: -110%

# Exported bar-delimited: part of the list above.
row | Compound | activity change, negative = inhibition
2 | COc1cccc(OC)c1OCCCOc1ccc([N+](=O)[O-])cc1Cl | inconclusive: -47.7%
3 | Cc1ccc(S(=O)(=O)NCC2CCC(C(=O)NCCCOC(C)C)CC2)cc1 (centres undefined) | inconclusive: 0%
4 | CCCCC(=O)N/N=C/c1ccc(-c2ccc([N+](=O)[O-])cc2)o1 | inconclusive: -52.5%
5 | COc1cc(/C=N\NC(=O)c2nonc2N)c(OC)cc1Br | inconclusive: -56.2%
6 | COc1cc(C(=O)NNC(=O)c2nn(C)c(=O)c3ccccc23)cc(OC)c1OC | inactive: 33.8%
7 | Cc1ccc(C2CC(c3cccc(C)c3)n3nc(N)nc3N2)cc1 (centres undefined) | inconclusive: -57.4%
8 | COc1ccc(/C=N/NC(=O)c2cccc(NC(=O)c3ccccc3Cl)c2)cc1 | inconclusive: -41.3%
9 | CCc1ccc2[nH]c(=O)c(CN(Cc3ccccc3)C(=O)Nc3ccccc3OC)cc2c1 | inconclusive: -59.8%
10 | CC(=O)N1CCN(c2ccccc2NC(=O)c2cc3ccccc3o2)CC1 | inconclusive: -52.1%
11 | CC(=O)Nc1ccccc1S(=O)(=O)CC1CC1(Cl)Cl (centres undefined) | inconclusive: -48.6%
12 | O=C(N/N=C/c1cccc([N+](=O)[O-])c1)c1cccc2cc[nH]c12 | inactive: 52%
13 | Cc1cccc(NC(=S)N2CCN(c3ccc(F)cc3)CC2)c1 | inactive: 30.7%
14 | CC(C)(C)C(=O)/C=C/c1ccc(Oc2ccccc2)cc1 | inconclusive: -41%
